From article PMC10443802 (JCI Insight, 2023)

System: OATP1B2
Test: Untargeted metabolomics of plasma and DRG, WT vs OATP1B2-deficient mice
Type: in vivo, mouse
[1] = untargeted metabolomics, WT vs OATP1B2-deficient mice, supplement sheet "Figure 5B"
[2] = untargeted metabolomics, sheet "Figure 5C", WT vs OATP1B2-deficient mice
[3] = Figure 5B source data (volcano plot), untargeted metabolomics, WT vs OATP1B2-deficient mice, log2 fold change of metabolite level
[4] = untargeted metabolomics, WT vs OATP1B2-deficient mice, supplement sheet "Figure 5B" (volcano plot)

SMILES	Log2FoldChange [2]	Log2FoldChange [4]	further results
NC(=O)C[C@H](N)C(=O)O [asparagine]	0.2016		Log2FoldChange [1]: -0.08927
CCCCC/C=C\C/C=C\CCCCCCCC(=O)O[C@H](COC(=O)CCCCCCC/C=C\CCCCCC)COP(=O)([O-])OCC[N+](C)(C)C	0		
Cn1cnc2c(ncn2[C@@H]2O[C@H](CO)[C@@H](O)[C@H]2O)c1=N [N1-methyladenosine]	0.5261		Log2FoldChange [1]: 0.08406
Nc1ccn([C@H]2C[C@H](O)[C@@H](CO)O2)c(=O)n1 [2'-deoxycytidine]			Log2FoldChange [3]: -0.3219
N[C@@H](CS)C(=O)NCC(=O)O [cysteinylglycine]	0.2388		
O=C(O)[C@@H](O)Cc1cnc[nH]1 [imidazole lactate]	0.1375	0.4957	
O=C(O)CNC(=O)[C@@H]1CCCN1 [prolylglycine] (H-Pro-Gly-OH)	0.263		
O=C(O)CCc1cccc(OS(=O)(=O)O)c1 [3-(3-hydroxyphenyl)propionate sulfate]			Log2FoldChange [3]: -1.474
O=C(O)/C=C/c1ccccc1 [cinnamate]		0.6781	
CCCCCCCCCCCCCCCC(=O)NCCS(=O)(=O)O [N-palmitoyltaurine]	0.3334	0.2265	
CCCCC/C=C\C/C=C\C/C=C\C/C=C\CCCC(=O)OC(COC(=O)CCCCCCCCCCCCCCC)COP(=O)(O)OCCN (stereo not shown)	-0.08927		Log2FoldChange [1]: 0.111
CCCCCCC(N)C(=O)O (stereo not shown) [2-aminooctanoate]	-0.415		Log2FoldChange [1]: -0.1047
NC(Cc1cc(I)c(Oc2cc(I)c(O)c(I)c2)c(I)c1)C(=O)O (stereo not shown) [thyroxine]			Log2FoldChange [3]: -0.2515
CCCCC/C=C\CCC(=O)O [cis-4-decenoate (10:1n6)*]	0.263		Log2FoldChange [3]: -0.4739
CCCCCC/C=C\CCCCCCCC(=O)NCCO [palmitoleoyl ethanolamide*]	-0.2345		
C[N+]1(C)CCCC[C@H]1C(=O)[O-] [homostachydrine*]		0.251	
O=C(O)CCCCCCCCC(O)CC(=O)O (stereo not shown) [3-hydroxydodecanedioate*]		2.111	
C[C@H](CCC(=O)NCCS(=O)(=O)O)[C@H]1CC[C@H]2[C@@H]3CC[C@@H]4C[C@H](OS(=O)(=O)O)CC[C@]4(C)[C@H]3CC[C@]12C [taurolithocholate 3-sulfate]		1.17	
CC(C)C(O)(CC(=O)O)C(=O)O (stereo not shown) [2-isopropylmalate]		0.433	
CCCCCCCCCCCCCCCC(=O)OC(COC(=O)CCCCCCCCCCCCC)COP(=O)([O-])OCC[N+](C)(C)C (stereo not shown) [1-myristoyl-2-palmitoyl-GPC (14:0/16:0)]	-0.1203	0.6781	
N[C@@H](Cc1ccccc1)C(=O)O [phenylalanine]	0.09761		
CC/C=C\C/C=C\C/C=C\CCCCCCCC(=O)OC[C@@H](O)COP(=O)([O-])OCC[N+](C)(C)C [1-linolenoyl-GPC (18:3)*]		1.091	
CCCCC/C=C\C/C=C\CCCCCCCC(=O)O[C@H](COC(=O)CCCCCCC/C=C\CCCCCCCC)COP(=O)(O)OCCN [1-oleoyl-2-linoleoyl-GPE (18:1/18:2)*]	-0.152	0.275	
CC(C)C[C@H](NC(=O)CN)C(=O)O [glycylleucine]	0.2265		
CCCCCCCCCCCC(=O)O[C@H](CC(=O)[O-])C[N+](C)(C)C [laurylcarnitine (C12)]			Log2FoldChange [1]: 0.2016

SMILES	Log2FoldChange [2]	Log2FoldChange [4]	further results
O=C(O)CC(O)C(=O)O (stereo not shown) [malate]	0.05658	0.2388	
NCCCC(=O)N[C@@H](Cc1cnc[nH]1)C(=O)O [homocarnosine]	0.3334		
CCCCC/C=C\C/C=C\CCCCCCCC(=O)OC[C@H](COP(=O)(O)OCCN)OC(=O)CCCCCCC/C=C\C/C=C\CCCCC [1,2-dilinoleoyl-GPE (18:2/18:2)*]		0.4222	
O=C(O)CNC(=O)c1ccco1 [N-(2-furoyl)glycine]			Log2FoldChange [3]: -0.1844
CCCCCCCCCCCCCC(=O)O [myristate (14:0)]	0.05658		Log2FoldChange [3]: -0.2515
Nc1nc2[nH]cc(CN[C@H]3C=C[C@H](O)[C@@H]3O)c2c(=O)[nH]1 [queuine]	0.3674		
CN(C)CCCC[C@H](N)C(=O)O [N6,N6-dimethyllysine]			Log2FoldChange [3]: -0.889
O=C(O)CC1C(=O)Nc2ccccc21 (stereo not shown) [2-oxindole-3-acetate]			Log2FoldChange [3]: -0.8625
O=C(O)C(=O)[C@@H](O)[C@H](O)[C@@H](O)CO [2-ketogulonate]			Log2FoldChange [1]: 0.09761
CCCCCCCCCCCCCCCCCCCC(=O)NCCO [arachidoyl ethanolamide (20:0)*]	0.08406		
CC(=O)N[C@@H](Cc1c[nH]cn1)C(=O)O [N-acetylhistidine]			Log2FoldChange [1]: 0.2016
CC/C=C\C/C=C\CC(O)/C=C/C=C\C/C=C\CCCC(=O)O (stereo not shown) [12-HEPE]			Log2FoldChange [1]: -0.1047
CC(CN)C(=O)O (stereo not shown) [3-aminoisobutyrate]	0.3219		Log2FoldChange [1]: 0.1763
CCCCC/C=C\C/C=C\C/C=C\C/C=C\CCCC(=O)O[C@H](COC(=O)CCCCCCC/C=C\CCCCCCCC)COP(=O)(O)OCCN [1-oleoyl-2-arachidonoyl-GPE (18:1/20:4)*]	-0.152		Log2FoldChange [1]: 0.189
CCCCCCCCCCCCCCCCCCCCCC(=O)N[C@@H](COP(=O)([O-])OCC[N+](C)(C)C)[C@H](O)CCCCCCCCCCCCCCC			Log2FoldChange [1]: -0.1047
C[N+](C)(C)CCCC(=O)[O-] [deoxycarnitine]	-0.1047		Log2FoldChange [3]: -0.2345
CCCCCC(O)CC(=O)NCC(=O)O (stereo not shown) [3-hydroxyoctanoylglycine]		0.5059	
O=C(O)[C@@H]1CCCN1 [proline]	0.1763		Log2FoldChange [1]: 0.02857
CCCCC/C=C\C/C=C\C/C=C\C/C=C\CCCC(=O)O[C@H](COC(=O)CCCCCCC/C=C\C/C=C\CCCCC)COP(=O)([O-])OCC[N+](C)(C)C	0.1763	0.4436	
C[C@@H](CO)C(=O)O [3-hydroxyisobutyrate]	0.3785		Log2FoldChange [1]: -0.074
CCCCCCCCCCCCCCCCCCCC(=O)OC(CC(=O)[O-])C[N+](C)(C)C (stereo not shown) [arachidoylcarnitine (C20)*]	0	0.4436	
NCCS(=O)O [hypotaurine]			Log2FoldChange (mouse, in vivo): 0.3561 and 0.08406
CC(C)(O)C(O)C(=O)O (stereo not shown) [2,3-dihydroxyisovalerate]	-0.1361	0.3561	
CCCCC/C=C\C/C=C\C/C=C\C/C=C\CCCCCC(=O)O[C@H](CC(=O)[O-])C[N+](C)(C)C [adrenoylcarnitine (C22:4)*]	0.9486		
O=C1CCN([C@@H]2O[C@H](CO)[C@@H](O)[C@H]2O)C(=O)N1 [5,6-dihydrouridine]	0.2388		

SMILES	Log2FoldChange [2]	Log2FoldChange [4]	further results
CCCCCCCCCCCCCCCC(=O)OC(CO)CO [2-palmitoylglycerol (16:0)]	0.433		Log2FoldChange [1]: -0.1361
CC/C=C\C/C=C\C/C=C\C/C=C\C/C=C\C/C=C\CCC(=O)O[C@H](COC(=O)CCCCCCCCCCCCCCCCC)COP(=O)([O-])OCC[N+](C)(C)C			Log2FoldChange [1]: -0.074
COc1ccc(C[C@H](N)C(=O)O)cc1 [O-methyltyrosine]	0.585		
CCCCCCCCCCCCCCCC(=O)NCC(=O)O [N-palmitoylglycine]	0.4436		Log2FoldChange [1]: 0.1763
Cc1ccc(OS(=O)(=O)O)c(N)c1 [2-amino-p-cresol sulfate]		2.098	
Nc1ncnc2c1ncn2C1CC(O)C(CO)O1 (stereo not shown) [2'-deoxyadenosine]	0.2016		
C/C=C(\C)C(=O)NCC(=O)O [tigloylglycine]		0.4647	
CCCCC/C=C\C/C=C\CCCCCCCC(=O)O[C@H](COC(=O)CCCCCCC/C=C\CCCCCCCC)COP(=O)([O-])OCC[N+](C)(C)C [1-oleoyl-2-linoleoyl-GPC (18:1/18:2)*]	-0.1361		
NC(=O)CC[C@H](NC(=O)CC[C@H](N)C(=O)O)C(=O)O [gamma-glutamylglutamine]	0.08406		
Cn1cnc(CCN)c1 [1-methylhistamine]	0.263	0.2265	
COC(=O)CCC(N)C(=O)O (stereo not shown) [glutamate, gamma-methyl ester]			Log2FoldChange (mouse, in vivo): 0.2016
CCC(C)C(O)C(=O)O (stereo not shown) [2-hydroxy-3-methylvalerate]		1.655	
CCC(NC(=O)CCC(N)C(=O)O)C(=O)O (stereo not shown)			Log2FoldChange [3]: -0.5995
CCCCCCC(NC(C)=O)C(=O)O (stereo not shown) [N-acetyl-2-aminooctanoate*]			Log2FoldChange [1]: 0.1763
CC(=O)Nc1ccc(C(=O)O)cc1 [4-acetamidobenzoate]		1.098	
CC(=O)NCCCC[C@H](NC(C)=O)C(=O)O [N2,N6-diacetyllysine]		0.275	
CC(=O)N[C@@H](CCCCNC(N)=O)C(=O)O [N-acetylhomocitrulline]		0.433	
O=C(O)C(O)Cc1c[nH]c2ccccc12 (stereo not shown) [indolelactate]	-0.5146		
CC(C)CCCCCCCCCCCCCCCCC(=O)O [18-methylnonadecanoate (i20:0)]			Log2FoldChange [1]: -0.1047
CCCCCCC=CCCCCCCCCC(=O)O [10-heptadecenoate (17:1n7)]	0.3219		
C=CC1=C(C)/C(=C/c2[nH]c(Cc3[nH]c(/C=C4\NC(=O)C(C)=C4C=C)c(C)c3CCC(=O)O)c(CCC(=O)O)c2C)NC1=O [bilirubin (E,E)*]		2.614	
CC(O)CC(=O)O (stereo not shown) [3-hydroxybutyrate (BHBA)]			Log2FoldChange [3]: -0.2515
O=C(O)CCc1c[nH]c2ccccc12 [indolepropionate]		0.263	
CC(C)C(=O)NCC(=O)O [isobutyrylglycine]			Log2FoldChange [1]: 0.02857
CC(C)[C@H](N)C(=O)NCC(=O)O [valylglycine] (H-Val-Gly-OH)	0.263		

Where “and” joins values, the source holds several entries; their conditions need not be identical. Equal values may be shown once. Where a name gives a salt, the structure may show the parent alone. Where a SMILES comes first, the peptide text is derived from it.
